Results are given in words; binding and its absence hold for the method and conditions named. In cells and extracts the contact can be indirect. Binding calls can cover weak binding; strength is not graded here. Tags and fused reporters may be left off the sequences shown.
Legend:
[1] = biological target: T1, SATB1 with N-terminal FLAG Tag (UniProt Q60611); assay: co-IP; nuclear extract of Rcho1 cells stably expressing FLAG-tagged SATB1 or ELF5 (20 mM Tris-HCl pH 7.5, 2 mM EDTA, 0.3 M NaCl, 0.5% Triton X-100); anti-FLAG (M2) magnetic beads overnight; 8 washes in 50 mM Hepes-NaOH pH 7.9, 0.25 M KCl, 0.1% Triton X-100; eluted with FLAG peptide; Western blot
T1 sequence: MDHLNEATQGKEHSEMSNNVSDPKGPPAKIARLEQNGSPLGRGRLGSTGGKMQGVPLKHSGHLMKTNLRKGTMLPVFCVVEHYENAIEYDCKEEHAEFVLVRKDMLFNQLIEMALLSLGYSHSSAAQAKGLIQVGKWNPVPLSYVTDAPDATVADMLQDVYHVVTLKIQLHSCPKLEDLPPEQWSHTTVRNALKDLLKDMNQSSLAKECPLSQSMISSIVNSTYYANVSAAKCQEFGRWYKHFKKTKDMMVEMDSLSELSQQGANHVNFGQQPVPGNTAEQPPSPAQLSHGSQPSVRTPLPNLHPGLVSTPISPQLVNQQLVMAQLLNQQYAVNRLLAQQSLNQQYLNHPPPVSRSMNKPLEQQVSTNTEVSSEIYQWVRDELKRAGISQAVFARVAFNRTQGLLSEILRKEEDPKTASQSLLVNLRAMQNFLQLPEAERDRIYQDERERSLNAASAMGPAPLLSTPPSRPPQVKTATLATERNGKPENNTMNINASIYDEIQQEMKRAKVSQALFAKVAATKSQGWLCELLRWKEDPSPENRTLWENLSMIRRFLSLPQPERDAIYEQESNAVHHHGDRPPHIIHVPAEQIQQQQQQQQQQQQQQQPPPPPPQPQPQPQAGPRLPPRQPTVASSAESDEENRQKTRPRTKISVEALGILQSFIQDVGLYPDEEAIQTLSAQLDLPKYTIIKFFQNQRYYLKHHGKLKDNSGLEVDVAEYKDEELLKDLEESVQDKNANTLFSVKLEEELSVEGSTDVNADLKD

[2] = biological target: T2, ELF5 with C-terminal FLAG tag (UniProt Q8VDK3); assay: as above
T2 sequence: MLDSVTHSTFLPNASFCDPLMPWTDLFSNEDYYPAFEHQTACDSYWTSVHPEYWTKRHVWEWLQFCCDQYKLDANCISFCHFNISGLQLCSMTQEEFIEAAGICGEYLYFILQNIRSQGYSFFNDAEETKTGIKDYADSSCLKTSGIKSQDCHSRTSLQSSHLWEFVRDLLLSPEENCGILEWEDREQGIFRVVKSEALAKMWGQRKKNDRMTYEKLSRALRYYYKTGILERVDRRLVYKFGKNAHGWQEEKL

Row | Substance | binding [1] | binding [2]
1 | ELF5 (rat (endogenous in Rcho1)) | binds | 
2 | SATB1 (rat (endogenous in Rcho1)) |  | binds

From publication PMC9795202
